Some entries repeat one wording, which the source may state once for all of them.
Assay: evaluation of various acid addition salts
Format: physicochemical
Settings: for Observation: precipitation of the acid addition salt: even with variation of the solvent
Excerpt: Evaluation of various acid addition salts of 2-{3-[4-(2-t-butyl-6-trifluoromethyl-4-pyrimidyl)-1-piperazinyl)propylthio}-4-5 pyrimidinol

Substance	Observation: precipitation of the acid addition salt	Observation: handling of the salt
Citrate	the acid addition salt could not be	–
Lactate	the acid addition salt could not be	–
Malate	precipitates slowly overnight as a	difficult to handle
Tartrate	the acid addition salt could not be	–

— patent US6486162B2, “2-{3-[4-(2-t-butyl-6-trifluoromethyl-4-pyrimidinyl)-1- piperazinyl] propylthio}-4-pyrimidinol fumarate” (Abbott Laboratories, priority 1997, dated 2002)
